Results deposited as PubChem BioAssay AID652259 (Drosophila RNAi Screening Center, 2013)

Assay: 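Genome-wide hunt for genes that control Wingless pathway activity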 (primary screen)
Cells: Drosophila clone 8 imaginal disc epithelial cells
Knock-down reagent: long dsRNA against Drosophila genes
Conditions: pathway stimulated by co-transfected Wingless expression plasmid
Detection: 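Dual luciferase reads per well after Wingless plasmid stimulation: reporter firefly light and Renilla control light; activity is firefly divided by Renilla, a ratio not deposited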
Reading the numbers: firefly reporter light: higher = more Wg reporter light, before normalisation; Renilla control light: higher = more transfected or surviving cells
Hit rule: 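Strong candidates differ from their plate mean by at least two out of four per-plate statistical tests; weak candidates meet just one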
Calls: active = candidate regulator (raises or lowers reporter); inactive = not a candidate
The deposit covers about 22,000 reagents; this is a random part of those with a known target gene and a result. Of all reagents, 233 (1.1%) got an active call. 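Light values are raw, unnormalised plate reads; the ratio scores behind the reporter calls were not deposited.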 Reagents against one gene are numbered here. The record does not give: the amount of reagent, the time to read-out, the dose of the treatment.

CG13627 — firefly reporter light, replicate 1: 12853; Renilla control light, replicate 1: 12976; activity call: inactive
Dup99B — firefly reporter light, replicate 1: 4.72e5; firefly reporter light, replicate 2: 4.56e5; Renilla control light, replicate 1: 2.07e5; Renilla control light, replicate 2: 2.15e5; activity call: inactive
Mdr65 — firefly reporter light, replicate 1: 1216; firefly reporter light, replicate 2: 4668; Renilla control light, replicate 1: 773; Renilla control light, replicate 2: 2461; activity call: inactive
CG42583 — firefly reporter light, replicate 1: 7.46e5; firefly reporter light, replicate 2: 7.72e5; Renilla control light, replicate 1: 3.77e5; Renilla control light, replicate 2: 2.24e5; activity call: inactive
PTPMT1 — firefly reporter light, replicate 1: 12666; Renilla control light, replicate 1: 14044; activity call: inactive
CG9344 — firefly reporter light, replicate 1: 4947; firefly reporter light, replicate 2: 11690; Renilla control light, replicate 1: 752; Renilla control light, replicate 2: 3085; activity call: inactive
CG4382 — firefly reporter light, replicate 1: 3729; firefly reporter light, replicate 2: 6624; Renilla control light, replicate 1: 1177; Renilla control light, replicate 2: 3057; activity call: inactive
CG3191 — firefly reporter light, replicate 1: 3776; firefly reporter light, replicate 2: 8275; Renilla control light, replicate 1: 1529; Renilla control light, replicate 2: 3450; activity call: inactive

Targets above whose target name begins with C or c (5):
CG13627 — firefly reporter light, replicate 1: 12853; Renilla control light, replicate 1: 12976; activity call: inactive
CG42583 — firefly reporter light, replicate 1: 7.46e5; firefly reporter light, replicate 2: 7.72e5; Renilla control light, replicate 1: 3.77e5; Renilla control light, replicate 2: 2.24e5; activity call: inactive
CG9344 — firefly reporter light, replicate 1: 4947; firefly reporter light, replicate 2: 11690; Renilla control light, replicate 1: 752; Renilla control light, replicate 2: 3085; activity call: inactive
CG4382 — firefly reporter light, replicate 1: 3729; firefly reporter light, replicate 2: 6624; Renilla control light, replicate 1: 1177; Renilla control light, replicate 2: 3057; activity call: inactive
CG3191 — firefly reporter light, replicate 1: 3776; firefly reporter light, replicate 2: 8275; Renilla control light, replicate 1: 1529; Renilla control light, replicate 2: 3450; activity call: inactive

Further reagents:
Burs — firefly reporter light, replicate 1: 31622; Renilla control light, replicate 1: 5004; activity call: inactive
CG10936 #1 — firefly reporter light, replicate 1: 23002; Renilla control light, replicate 1: 14506; activity call: inactive
CG10936 #2 — firefly reporter light, replicate 1: 20114; Renilla control light, replicate 1: 11011; activity call: inactive
CG10936 #3 — firefly reporter light, replicate 1: 4470; Renilla control light, replicate 1: 2050; activity call: inactive
CG3760 — firefly reporter light, replicate 1: 3910; Renilla control light, replicate 1: 1221; activity call: inactive
UQCR-C1 — firefly reporter light, replicate 1: 7288; Renilla control light, replicate 1: 2566; activity call: inactive
Tl — firefly reporter light, replicate 1: 2752; firefly reporter light, replicate 2: 6710; Renilla control light, replicate 1: 1235; Renilla control light, replicate 2: 2050; activity call: inactive
CG13516 — firefly reporter light, replicate 1: 2761; firefly reporter light, replicate 2: 6824; Renilla control light, replicate 1: 785; Renilla control light, replicate 2: 3244; activity call: inactive
CG6481 — firefly reporter light, replicate 1: 19410; Renilla control light, replicate 1: 10097; activity call: inactive
Brf #1 — firefly reporter light, replicate 1: 5666; Renilla control light, replicate 1: 1227; activity call: inactive
Brf #2 — firefly reporter light, replicate 1: 13680; Renilla control light, replicate 1: 3988; activity call: inactive
Brf #3 — firefly reporter light, replicate 1: 15280; Renilla control light, replicate 1: 4139; activity call: inactive
org-1 — firefly reporter light, replicate 1: 37318; Renilla control light, replicate 1: 8644; activity call: inactive
GluRIIB — firefly reporter light, replicate 1: 3432; firefly reporter light, replicate 2: 6188; Renilla control light, replicate 1: 811; Renilla control light, replicate 2: 1864; activity call: inactive
grass — firefly reporter light, replicate 1: 6394; Renilla control light, replicate 1: 2357; activity call: inactive
CG14434 — firefly reporter light, replicate 1: 18050; Renilla control light, replicate 1: 6016; activity call: inactive
Obp19c — firefly reporter light, replicate 1: 12416; Renilla control light, replicate 1: 9527; activity call: inactive
